# Data as given in PubChem BioAssay AID1508597 (Cure First, 2020).
# Purpose: 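Survival screen with siRNA in ovarian cancer cells derived from patients, with or without rucaparib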 (primary screen)
# Cells: human ovarian carcinoma lines grown from tumours: OCI-P5x (papillary serous) and OCI-C5x (clear cell)
# Reagents: siRNA pool against human genes, 1.25 pmol siRNA per well
# Time to read-out: 72 h or 96 h, depending on the cell culture
# Conditions: rucaparib 20 µM (about IC30) or vehicle, present until read-out
# Rucaparib or vehicle: Rucaparib
# Cell line: OCI-C5x (clear cell)
# Detection: 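Luminescent ATP-based viability assay read 72 or 96 h after transfection, depending on culture, given as normalised percent viability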
# Reading the numbers: viability, normalised: higher = more viable cells remaining
# Call rule: 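a well counts as a hit if its normalised viability is under 80 percent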
# Calls: active = viability under 80%; inactive = viability 80% or more
# This is an unselected part of the about 2,100 reagents, in one setting of the screen. 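Calls flag viability under 80% in either arm, not effects specific to rucaparib; the reference for percent is not stated.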 A reagent listed more than once was tested more than once; the source does not tell the runs apart. Reagent sequences are not shown. Not given: the 100% reference.
Target gene,technical replicate,"viability, normalised (%)",call
NODAL (GeneID 4838),1,46.5,active
NODAL (GeneID 4838),2,51.1,active
NODAL (GeneID 4838),3,51.6,active
TJP2 (GeneID 9414),1,54.4,active
TJP2 (GeneID 9414),2,37.2,active
TJP2 (GeneID 9414),3,47.9,active
ZCCHC13 (GeneID 389874),1,73.5,active
ZCCHC13 (GeneID 389874),2,61.2,active
ZCCHC13 (GeneID 389874),3,56.3,active
SDC4 (GeneID 6385),1,57.5,active
SDC4 (GeneID 6385),2,69.1,active
SDC4 (GeneID 6385),3,57.5,active
STK35 (GeneID 140901),1,49.2,active
STK35 (GeneID 140901),2,56.6,active
STK35 (GeneID 140901),3,41.3,active
MED27 (GeneID 9442),1,56.2,active
MED27 (GeneID 9442),2,38.8,active
MED27 (GeneID 9442),3,50.1,active
CHMP6 (GeneID 79643),1,54.2,active
CHMP6 (GeneID 79643),2,59.1,active
CHMP6 (GeneID 79643),3,47.6,active
HUS1 (GeneID 3364),1,71.2,active
HUS1 (GeneID 3364),2,80.4,inactive
HUS1 (GeneID 3364),3,68.6,active
EGFR (GeneID 1956),1,50.8,active
EGFR (GeneID 1956),2,43,active
EGFR (GeneID 1956),3,44.8,active
HSD17B4 (GeneID 3295),1,53.1,active
HSD17B4 (GeneID 3295),2,65,active
HSD17B4 (GeneID 3295),3,70.3,active
AGO4 (GeneID 192670),1,37.3,active
AGO4 (GeneID 192670),2,43,active
AGO4 (GeneID 192670),3,36.7,active
BRD7 (GeneID 29117),1,68.9,active
BRD7 (GeneID 29117),2,49.1,active
BRD7 (GeneID 29117),3,41.4,active
PFKFB4 (GeneID 5210),1,54.1,active
PFKFB4 (GeneID 5210),2,62.5,active
PFKFB4 (GeneID 5210),3,57.9,active
PHIP (GeneID 55023),1,50.4,active
PHIP (GeneID 55023),2,46.6,active
PHIP (GeneID 55023),3,41.6,active
H4C1 (GeneID 8359),1,46.6,active
H4C1 (GeneID 8359),1,62.6,active
H4C1 (GeneID 8359),2,46.6,active
H4C1 (GeneID 8359),2,61.5,active
H4C1 (GeneID 8359),3,39.9,active
H4C1 (GeneID 8359),3,66.9,active
ROCK2 (GeneID 9475),1,52.8,active
ROCK2 (GeneID 9475),2,45.2,active
ROCK2 (GeneID 9475),3,46.3,active
TWF1 (GeneID 5756),1,52.4,active
TWF1 (GeneID 5756),2,61.1,active
TWF1 (GeneID 5756),3,52.1,active
MBD2 (GeneID 8932),1,52.6,active
MBD2 (GeneID 8932),2,37.3,active
MBD2 (GeneID 8932),3,38,active

Laid out differently: results already given.
{"Target gene":"AGO4 (GeneID 192670)","technical replicate":"2","viability, normalised (%)":43,"call":"active"}
{"Target gene":"AGO4 (GeneID 192670)","technical replicate":"3","viability, normalised (%)":36.7,"call":"active"}
{"Target gene":"BRD7 (GeneID 29117)","technical replicate":"1","viability, normalised (%)":68.9,"call":"active"}
